In patent publication US20260207767A1:
Numbering of substitutions follows the chain as printed. No constants are given. Whether binding was seen depends on the method and setting. Some binding calls cover weakened binding; strength is not graded here.

B1: XVT458-z2-m1 (antibody, V domains shown)
VH: QVQLVQSGAEVKKPGASVKVSCKASGYTFTNFYIHWVRQAPGQGLEWMGSIYPNYGFTAYNQKFKDRVTMTVDTSTSTAYMELRSLRSDDTAVYYCARGYSYAMDYWGQGTTVTVSS
VL: DIQMTQSPSSVSASVGDRVTITCSASQGIWGDLNWYQQKPGKAPKLLIYHTSQLHSDVPSRFSGSGSGTDFTLTISSLQPEDFATYYCQGYSKDLLTFGGGTKLEIK
B2: XVT458-z2-m2 (antibody, V domains shown)
VH: B1 VH with S50R
VL: B1 VL with W30Y, Q53S, D57G, G90A
B3: XVT458-z2-m3 (antibody, V domains shown)
VH: B1 VH with S50R, F57I
VL: B1 VL with W30S, L54R
B4: XVT458-z2-m4 (antibody, V domains shown)
VH: B1 VH with S50R, F57I
VL: B1 VL with W30S, Q53S, L54R, D57G
B5: XVT458-z2-m5 (antibody, V domains shown)
VH: B1 VH with S50R, F57I
VL: B1 VL with W30Y, Q53S, L54R, D57G, G90A
B6: XVT458-z2-m6 (antibody, V domains shown)
VH: B1 VH with F57I
VL: B1 VL with W30S

Molecular target: recombinant cynoPD-1 (construct not stated) (cynomolgus monkey) (UniProt B0LAJ3)
Assay: ELISA, SPR

| Binder | binding |
| --- | --- |
| B1 | binds |
| B2 | binds |
| B3 | binds |
| B4 | binds |
| B5 | binds |
| B6 | binds |
